Test results reported in patent US11649235B2, “Pan-tropic entry inhibitors” (Emory University, priority 2018, dated 2023).

Experiment: Mouse liver microsomes assay
Type: in vitro ADME
Details: CD-1, mouse, 3 μM, pH 7.4
Procedure: Mouse Liver Microsomes: […] […] Controls were processed and analyzed like test compounds. […] The relative percent remaining was calculated using: Relative % remaining=[…]=0*100. […] Metabolism data averaged duplicates.

## CN(C)CCOC(c1ccccc1)c1ccccc1 [Diphenhydramine, diphenhydramine, reference compound]
10 min
  Relative % remaining, mouse liver microsomes: 64 ± 3.1%
0.5 h
  Relative % remaining, mouse liver microsomes: 25 ± 4.1%
